Measurements reported in patent publication US20260183437A1, “VHH ANTIBODY CONJUGATES WITH HETEROARYL CHELATORS” (ABDERA THERAPEUTICS INC., priority 2022, published 2026).

System: double stranded DNA
Test: Polyreactivity ELISA
Type: binding
Details: 10 μg/mL VHH-Fc; signal normalized to non-coated well

B1: Gantenerumab: control antibody in the polyreactivity assay (antibody, chains of the INN, looked up, V domains shown)
VH: QVELVESGGGLVQPGGSLRLSCAASGFTFSSYAMSWVRQAPGKGLEWVSAINASGTRTYYADSVKGRFTISRDNSKNTLYLQMNSLRAEDTAVYYCARGKGNTHKPYGYVRYFDVWGQGTLVTVSS
VL: DIVLTQSPATLSLSPGERATLSCRASQSVSSSYLAWYQQKPGQAPRLLIYGASSRATGVPARFSGSGSGTDFTLTISSLEPEDFATYYCLQIYNMPITFGQGTKVEIK
For B1, the “Polyreactivity Assay Score, dsDNA” value was over 10.
